The source of these data is patent publication US20180327493A1.

In this assay the target is T1, murine CD84 on cells (B220+CD5+ splenic cells of TCL-1 mice, M210B4 stromal cells) (mouse) (UniProt Q18PI6).
T1 sequence (looked up): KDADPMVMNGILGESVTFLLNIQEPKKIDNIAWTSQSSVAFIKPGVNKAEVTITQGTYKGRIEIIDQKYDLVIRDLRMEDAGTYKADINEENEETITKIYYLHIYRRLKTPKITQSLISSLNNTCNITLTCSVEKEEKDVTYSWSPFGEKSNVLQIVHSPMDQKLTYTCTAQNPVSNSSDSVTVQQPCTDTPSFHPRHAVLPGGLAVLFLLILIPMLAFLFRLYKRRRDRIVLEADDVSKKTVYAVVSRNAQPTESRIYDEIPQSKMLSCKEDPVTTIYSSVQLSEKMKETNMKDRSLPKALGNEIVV
Briefly: incubation with B220+CD5+ splenic cells of TCL-1 mice; cross-reactivity inferred from Annexin-7AAD cell death.

These are yes or no findings as the source states them, for the method shown. Some results given as binding are weak or reduced against the parent protein; the word gives no strength.

B1: anti-CD84 antibody from the B4 hybridoma (antibody, V domains shown)
VH: EVKLVESGAELARPGASVKLSCKASGYTFTSYWMQWVKQRPGQGLEWIGAIYPGDGDTRYTQKFKGKATLTADKSSSTAYMQLSSLASEDSAVYYCARLLRTYWYFDVWGAGTTVTVSS
VL: DIVLTQSHKFMSTSVGDRVSITCKASQDVGTAVAWYQQKPGQSPKLLIYWASTRHTGVPDRFTGSGSGTDFTLTISNVQSEDLADYFCQQYSSYPYTFGGGTKLELKR
On to B1, for which the binding result is given as “binds”.
